This is an account of results in article doi:10.1101/2025.11.15.688632.

Construct, isoform or probe ends are uncertain for at least one entry. For some assays here: A negative result means that nothing was seen under these conditions.

One data set concerns CREBΔKID. As to the kind of experiment: stopped-flow fluorescence. The following applies: kon 1.5 ± 0.1 nM-1 s-1.
The next data set has as its system CREB-GS-KID. As to the kind of experiment: stopped-flow fluorescence. The note with it: kon 1.46 ± 0.07 nM-1 s-1.
A further data set deals with CREBΔQ1. As to the kind of experiment: stopped-flow fluorescence. The note with it: kon 1.66 ± 0.06 nM-1 s-1.
In data set [1] the test system is bZIP-FD (covalent forced dimer). As to the kind of experiment: stopped-flow fluorescence. The following applies: kon 2.3 ± 0.08 nM-1 s-1 (main text 2.45 ± 0.08).
The test system of the next data set is CREB (pseudo wild-type). As to the kind of experiment: stopped-flow fluorescence.
The next data set has as its system CREBΔQ2. As to the kind of experiment: stopped-flow fluorescence. The following applies: kon 1.36 ± 0.07 nM-1 s-1.
The subject of a further data set is bZIP. In words: stopped-flow fluorescence.
Another data set has as its system AlexaFluor488-CREBΔLZ. In words: flow-induced dispersion analysis. The note with it: mM DNA, Rh change explained by viscosity.

Consider CCTGACGTCAGCCCCCTGACGTCAGG [CREh], for which the binding result (in the data set with CREBΔKID; in the data set with CREB-GS-KID; in the data set on CREBΔQ1; in data set [1]; in the data set on CREB (pseudo wild-type) (kon 1.2 ± 0.1 nM-1 s-1); in the data set with CREBΔQ2) was “binds” in each case. For the same sequence, in the data set with bZIP (kon 2.3 ± 0.3 nM-1 s-1), the binding result is on record as “binds”.

As to CCTGACGTCATCGG (double strand) [CRElin], the binding result in the data set with CREB (pseudo wild-type) (kon similar to CREh) and with bZIP (kon similar to CREh) was “binds” throughout.

Regarding “CCTGACGTCATCGG (double strand) [CRElin (unlabelled)]”, in the data set on AlexaFluor488-CREBΔLZ, the binding result is listed as “no binding”.

On to GGCTAAAGCATTCT (double strand) [nCRE], for which, in the data set on AlexaFluor488-CREBΔLZ, the binding result is on record as “no binding”.
